Earlier results on one molecule are cited in patent publication US20240253033A1, “MICROFLUIDIC DETECTION SYSTEM WITH ADJUSTABLE FLOW CONTROL” (priority 2022, published 2024).

The test system of the data set is serum proteins. The note with it: human serum; cited from earlier work.

As for `O=C(O)c1cn(C2CC2)c2cc(N3CCNCC3)c(F)cc2c1=O` [Ciprofloxacin], the “drug bounded to serum proteins” value is 28%.
